No constants are given. Whether binding was seen depends on the method and setting. For some assays here: Binding seen in cells or lysates may run through a third protein. Some binding calls cover weakened binding; strength is not graded here. For some assays here: Where a sequence is shown, tags or fusion partners need not be part of it.
Columns and labels:
[1] = molecular target: T1, endogenous STX18 (HepG2) (human (endogenous in HepG2)) (UniProt Q9P2W9); assay: co-IP; endogenous IP in HepG2 cells without overexpression; western blot
T1 sequence: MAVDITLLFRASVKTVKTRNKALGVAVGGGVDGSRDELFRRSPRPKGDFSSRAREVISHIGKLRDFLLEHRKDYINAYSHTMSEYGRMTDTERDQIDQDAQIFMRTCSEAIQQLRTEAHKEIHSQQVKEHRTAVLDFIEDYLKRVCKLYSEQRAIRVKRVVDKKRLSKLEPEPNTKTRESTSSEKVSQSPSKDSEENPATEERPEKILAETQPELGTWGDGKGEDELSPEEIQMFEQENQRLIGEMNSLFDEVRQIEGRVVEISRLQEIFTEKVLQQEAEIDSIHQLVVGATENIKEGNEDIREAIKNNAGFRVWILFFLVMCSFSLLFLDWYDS

Protein sequences, listed by entry. Tags and fused reporters are not part of them. Lines headed by an entry give the natural chain unless they say otherwise; changes in a name come on top. Residues count along the entry.
UniProt O75396: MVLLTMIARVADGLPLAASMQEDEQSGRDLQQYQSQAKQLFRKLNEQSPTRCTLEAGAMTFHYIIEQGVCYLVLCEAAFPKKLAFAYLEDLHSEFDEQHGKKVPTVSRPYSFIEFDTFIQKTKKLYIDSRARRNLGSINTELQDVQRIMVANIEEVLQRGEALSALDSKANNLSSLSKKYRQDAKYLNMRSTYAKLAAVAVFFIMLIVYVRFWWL
His-SEC22B-SNARE (134-194) of the co-expressed mini-SNARE complex: residues 134-194 of O75396

Flag-STX18 (Huh7) = molecular target: T2, Flag-STX18 (Huh7) (UniProt Q9P2W9); assay: co-IP; Huh7 transfected with Flag-STX18 36 h, with or without 0.2 mM OA-BSA for 2 h, 6 h, 12 h; Flag IP; western blot
T2 sequence: T1 sequence

[2] = molecular target: T3, Flag-STX18 WT (syntaxin 18) (UniProt Q9P2W9); assay: co-IP; HEK293T co-transfected 36 h with a Flag-STX18 construct and GFP-SEC22B or GFP-SNAP23; lysis in TAP buffer (20 mM Tris-HCl pH 7.5, 150 mM NaCl, 0.5% NP-40); Flag IP overnight; western blot
T3 sequence: T1 sequence

[3] = molecular target: His-SEC22B-SNARE (134-194) of the co-expressed mini-SNARE complex (UniProt O75396); assay: SEC; four SNARE domains co-expressed in E. coli, co-purified on Ni-NTA by the His tags of SEC22B-SNARE and SNAP23-SNARE1, then Superdex 75 Increase 10/300 GL in 50 mM HEPES pH 7.4, 150 mM NaCl, 0.5 mM TCEP; single peak; SDS-PAGE and MS of the bands
[4] = molecular target: T4, His-SNAP23-SNARE1 (14-76) of the co-expressed mini-SNARE complex (UniProt O00161); assay: as above
T4 sequence: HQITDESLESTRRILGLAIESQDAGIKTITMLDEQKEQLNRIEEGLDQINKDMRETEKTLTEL

For “endogenous SEC22B (HepG2) (from UniProt O75396 1-215)”, the binding [1] was “binds”.

“SEC22B (Huh7) (from UniProt O75396 1-215)” was tested, and the binding (Flag-STX18 (Huh7)) was “binds”.

GFP-SEC22B (from UniProt O75396 1-215) was tested, and the binding [2] was “binds”.

B1: endogenous SNAP23 (HepG2) (protein, UniProt O00161 1-211)
chain: MDNLSSEEIQQRAHQITDESLESTRRILGLAIESQDAGIKTITMLDEQKEQLNRIEEGLDQINKDMRETEKTLTELNKCCGLCVCPCNRTKNFESGKAYKTTWGDGGENSPCNVVSKQPGPVTNGQLQQPTTGAASGGYIKRITNDAREDEMEENLTQVGSILGNLKDMALNIGNEIDAQNPQIKRITDKADTNRDRIDIANARAKKLIDS
B1 was tested, and the binding [1] was “binds”.

B2: STX18-SNARE (243-305), individually purified (domain or fragment, UniProt Q9P2W9 243-305, looked up)
chain: IGEMNSLFDEVRQIEGRVVEISRLQEIFTEKVLQQEAEIDSIHQLVVGATENIKEGNEDIREA
notes: syntaxin 18 (STX18), SNARE domain, residues 243-305, in pGEX-4T-1 with GST-TEV-FLAG at the N-terminus; The TEV site lies between GST and FLAG, so the FLAG tag should remain after cleavage (surmised); source: E. coli BL21 (DE3), purified (Glutathione Sepharose 4B, TEV on beads, Superdex 75); not shown: GST, N-terminal, cleaved
For B2, the binding [3] was “binds” and the binding [4] was “binds”.

B3: SNAP23-SNARE2 (146-208) of the co-expressed mini-SNARE complex (domain or fragment, UniProt O00161 146-208)
chain: DAREDEMEENLTQVGSILGNLKDMALNIGNEIDAQNPQIKRITDKADTNRDRIDIANARAKKL
In the case of B3, the binding [3] is reported as “binds” and the binding [4] is reported as “binds”.

B4: His-SNAP23-SNARE1 (14-76) of the co-expressed mini-SNARE complex (domain or fragment, UniProt O00161 14-76)
chain: T4 sequence
For B4, the binding [3] was “binds”.

B5: SNAP23 (Huh7) (protein, UniProt O00161 1-211)
chain: B1 chain
For B5, the binding (Flag-STX18 (Huh7)) was “binds”.

B6: GFP-SNAP23 (protein, UniProt O00161 1-211)
chain: B1 chain
For B6, the binding [2] was “binds”.

Source: paper PMC10663520, “Qa-SNARE syntaxin 18 mediates lipid droplet fusion with SNAP23 and SEC22B” (Cell Discovery, 2023)
